Laboratory results from patent US20230295330A1 (Seagen, published 2023).
These are yes or no findings as the source states them, for the method shown. Some binding calls cover weakened binding; strength is not graded here.

T1: human CD228 (R&D Systems Custom02; Lot DCWR021505A) (human) (UniProt P08582)
T1 sequence (looked up): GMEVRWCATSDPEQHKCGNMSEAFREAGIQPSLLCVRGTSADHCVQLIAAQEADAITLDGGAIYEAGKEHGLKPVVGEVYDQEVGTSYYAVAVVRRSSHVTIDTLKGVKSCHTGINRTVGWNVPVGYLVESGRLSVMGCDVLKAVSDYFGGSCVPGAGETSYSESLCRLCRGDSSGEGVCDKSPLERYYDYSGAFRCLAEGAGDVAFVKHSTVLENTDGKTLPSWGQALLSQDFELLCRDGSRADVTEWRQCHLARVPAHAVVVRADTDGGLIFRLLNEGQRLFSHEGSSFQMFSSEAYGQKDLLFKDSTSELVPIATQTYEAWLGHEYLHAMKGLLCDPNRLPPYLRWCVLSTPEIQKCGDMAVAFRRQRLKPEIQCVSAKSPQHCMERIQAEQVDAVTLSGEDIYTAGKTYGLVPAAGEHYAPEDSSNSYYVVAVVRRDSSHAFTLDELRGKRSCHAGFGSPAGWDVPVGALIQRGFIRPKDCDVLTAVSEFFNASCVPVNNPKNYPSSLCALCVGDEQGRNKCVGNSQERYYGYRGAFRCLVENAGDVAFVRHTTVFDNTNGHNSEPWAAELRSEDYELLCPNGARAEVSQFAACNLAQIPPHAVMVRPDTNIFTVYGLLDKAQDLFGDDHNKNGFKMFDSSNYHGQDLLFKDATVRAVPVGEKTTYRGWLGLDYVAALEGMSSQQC


Columns and labels:
[1] = target: T1, human CD228 (R&D Systems Custom02; Lot DCWR021505A) (human); experiment: ELISA, plate-coated human CD228, antibody titrated in citrate-phosphate buffer at pH 4.55, 5.60, 6.30 and 7.40, anti-human IgG Fc-HRP, OD 450 nm
[2] = target: T1, human CD228 (R&D Systems Custom02; Lot DCWR021505A) (human); experiment: BLI (Octet Red 384), antibody as ligand on the sensor, CD228 antigen as analyte
[3] = target: T1, human CD228 (R&D Systems Custom02; Lot DCWR021505A) (human); experiment: BLI (Octet Red 384), antibody as ligand, antigen as analyte
[4] = target: T1, human CD228 (R&D Systems Custom02; Lot DCWR021505A) (human); experiment: ELISA, coated human CD228, pH 4.55 to 7.4

binding [1] | binding [2] | binding [3] | binding [4] | Binder
binds | binds | – | – | hL49 (antibody, V domains shown, Humanized antibody; Only variable domains are tied to it; also called hL49 HALC; hL49 WT) VH: QVQLQESGPGLVKPSETLSLTCTVSGDSITSGYWNWIRQPPGKGLEYIGYISDSGITYYNPSLKSRVTISRDTSKNQYSLKLSSVTAADTAVYYCARRTLATYYAMDYWGQGTLVTVSS VL: DFVMTQSPLSLPVTLGQPASISCRASQSLVHSDGNTYLHWYQQRPGQSPRLLIYRVSNRFSGVPDRFSGSGSGTDFTLKISRVEAEDVGVYYCSQSTHVPPTFGQGTKLEIK
– | binds | binds | – | hL49_34_Tyr (antibody, V domains shown, hL49 variant with the light chain CDR-L1 histidine 34 changed to tyrosine; also called hL49_H34Y; hL49_Tyr) VH: QVQLQESGPGLVKPSETLSLTCTVSGDSITSGYWNWIRQPPGKGLEYIGYISDSGITYYNPSLKSRVTISRDTSKNQYSLKLSSVTAADTAVYYCARRTLATYYAMDYWGQGTLVTVSS VL: DFVMTQSPLSLPVTLGQPASISCRASQSLVHSDGNTYLYWYQQRPGQSPRLLIYRVSNRFSGVPDRFSGSGSGTDFTLKISRVEAEDVGVYYCSQSTHVPPTFGQGTKLEIK
binds | binds | binds | binds | hL49_34_Ala (antibody, V domains shown, hL49 variant with the light chain CDR-L1 histidine 34 changed to alanine; also called hL49_H34A) VH: QVQLQESGPGLVKPSETLSLTCTVSGDSITSGYWNWIRQPPGKGLEYIGYISDSGITYYNPSLKSRVTISRDTSKNQYSLKLSSVTAADTAVYYCARRTLATYYAMDYWGQGTLVTVSS VL: DFVMTQSPLSLPVTLGQPASISCRASQSLVHSDGNTYLAWYQQRPGQSPRLLIYRVSNRFSGVPDRFSGSGSGTDFTLKISRVEAEDVGVYYCSQSTHVPPTFGQGTKLEIK
